Results published in the supplement of paper PMC11438910.
The list shows a part of the results. The signal is at background level for most entries.

Assays:
Assay in all cases: fluorescence intensity of antibody binding to polysaccharide-coupled beads; higher = stronger binding
[1] = biological target: pneumococcal polysaccharide Pn47A
Experimental: (§1)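 Recombinant rhesus-murine chimeric IgG1 antibodies were tested against antigen-coupled MagPlex beads in a 96-plex Luminex direct immunoassay (dLIA). The beads carried pneumococcal capsular polysaccharides of 93 serotypes plus C-polysaccharides. Antibody was added at 0.1–12,500 ng/mL for 1 h, then PE anti-mouse IgG, and net MFI was read on a Bio-Plex 3D. Only the rhesus variable regions are printed; constant regions are murine IgG1/kappa/lambda, and the signal peptide is MGWSCIILFLVATATGVHS.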

[2] = biological target: pneumococcal polysaccharide Pn47F
Experimental: as §1

[3] = biological target: pneumococcal polysaccharide Pn48
Experimental: as §1

[4] = biological target: pneumococcal polysaccharide Pn5
Experimental: as §1

[5] = biological target: pneumococcal polysaccharide Pn6A
Experimental: as §1

[6] = biological target: pneumococcal polysaccharide Pn6B
Experimental: as §1

[7] = biological target: pneumococcal polysaccharide Pn6C
Experimental: as §1

[8] = biological target: pneumococcal polysaccharide Pn6D
Experimental: as §1

[9] = biological target: pneumococcal polysaccharide Pn7A
Experimental: as §1

[10] = biological target: pneumococcal polysaccharide Pn7B
Experimental: as §1

[11] = biological target: pneumococcal polysaccharide Pn7C
Experimental: as §1

[12] = biological target: pneumococcal polysaccharide Pn7F
Experimental: as §1

[13] = antibody concentration 2337.65 ng/mL
[14] = antibody concentration 12500 ng/mL
[15] = antibody concentration 0.1 ng/mL
[16] = antibody concentration 0.534724 ng/mL
[17] = antibody concentration 2.8593 ng/mL
[18] = antibody concentration 15.2894 ng/mL
[19] = antibody concentration 81.7561 ng/mL
[20] = antibody concentration 437.17 ng/mL

B1: 4-99.5 (protein)
chain 1: QVQLQESGPGLVKPSETLSLTCAVSGYSISSGYYWGWIRQPPGKGLEYIGYISGSSGSPYYNPSLKSRVTISKDTSKNQFSLKLSSATAADTAVYYCARRQVGIGFDYWGQGVLVTVSS
chain 2: QAAPTQPPSVSGSPGQSVTISCTGTSSDIGYYNAVSWYQQHPGKAPKLMIYEVSKRPSGVSDRFSGSKSGNTASLTISGLQAEDEADYYCSSYAGSNTYIFGAGTRLTVL
- fluorescence intensity [1, 13]: 17.2 MFI
- fluorescence intensity [1, 14]: 19.5 MFI
- fluorescence intensity [2, 15]: 12.5 MFI
- fluorescence intensity [2, 16]: 12.2 MFI
- fluorescence intensity [2, 17]: 12.5 MFI
- fluorescence intensity [2, 18]: 12.5 MFI
- fluorescence intensity [2, 19]: 12.5 MFI
- fluorescence intensity [2, 20]: 12 MFI
- fluorescence intensity [2, 13]: 13 MFI
- fluorescence intensity [2, 14]: 23.5 MFI
- fluorescence intensity [3, 15]: 22.5 MFI
- fluorescence intensity [3, 16]: 21 MFI
- fluorescence intensity [3, 17]: 22.5 MFI
- fluorescence intensity [3, 18]: 20.5 MFI
- fluorescence intensity [3, 19]: 21.5 MFI
- fluorescence intensity [3, 20]: 23 MFI
- fluorescence intensity [3, 13]: 26.2 MFI
- fluorescence intensity [3, 14]: 31.8 MFI
- fluorescence intensity [4, 15]: 8 MFI
- fluorescence intensity [4, 16]: 9 MFI
- fluorescence intensity [4, 17]: 9 MFI
- fluorescence intensity [4, 18]: 9.5 MFI
- fluorescence intensity [4, 19]: 9.25 MFI
- fluorescence intensity [4, 20]: 8.5 MFI
- fluorescence intensity [4, 13]: 11 MFI
- fluorescence intensity [4, 14]: 23 MFI
- fluorescence intensity [5, 15]: 21 MFI
- fluorescence intensity [5, 16]: 22.5 MFI
- fluorescence intensity [5, 17]: 22.2 MFI
- fluorescence intensity [5, 18]: 21.2 MFI
- fluorescence intensity [5, 19]: 22 MFI
- fluorescence intensity [5, 20]: 25.5 MFI
- fluorescence intensity [5, 13]: 24.5 MFI
- fluorescence intensity [5, 14]: 31.2 MFI
- fluorescence intensity [6, 15]: 19 MFI
- fluorescence intensity [6, 16]: 20 MFI
- fluorescence intensity [6, 17]: 20.8 MFI
- fluorescence intensity [6, 18]: 20 MFI
- fluorescence intensity [6, 19]: 20 MFI
- fluorescence intensity [6, 20]: 21.5 MFI
- fluorescence intensity [6, 13]: 20 MFI
- fluorescence intensity [6, 14]: 27.2 MFI
- fluorescence intensity [7, 15]: 21.5 MFI
- fluorescence intensity [7, 16]: 23.5 MFI
- fluorescence intensity [7, 17]: 32 MFI
- fluorescence intensity [7, 18]: 54.2 MFI
- fluorescence intensity [7, 19]: 59 MFI
- fluorescence intensity [7, 20]: 48.5 MFI
- fluorescence intensity [7, 13]: 63.2 MFI
- fluorescence intensity [7, 14]: 94.8 MFI
- fluorescence intensity [8, 15]: 20 MFI
- fluorescence intensity [8, 16]: 19 MFI
- fluorescence intensity [8, 17]: 18 MFI
- fluorescence intensity [8, 18]: 17.5 MFI
- fluorescence intensity [8, 19]: 17.5 MFI
- fluorescence intensity [8, 20]: 20 MFI
- fluorescence intensity [8, 13]: 20.2 MFI
- fluorescence intensity [8, 14]: 25 MFI
- fluorescence intensity [9, 15]: 20.5 MFI
- fluorescence intensity [9, 16]: 21.2 MFI
- fluorescence intensity [9, 17]: 21.2 MFI
- fluorescence intensity [9, 18]: 20.5 MFI
- fluorescence intensity [9, 19]: 20.5 MFI
- fluorescence intensity [9, 20]: 21.5 MFI
- fluorescence intensity [9, 13]: 28.5 MFI
- fluorescence intensity [9, 14]: 107 MFI
- fluorescence intensity [10, 15]: 18 MFI
- fluorescence intensity [10, 16]: 16.2 MFI
- fluorescence intensity [10, 17]: 18 MFI
- fluorescence intensity [10, 18]: 16 MFI
- fluorescence intensity [10, 19]: 17 MFI
- fluorescence intensity [10, 20]: 17.5 MFI
- fluorescence intensity [10, 13]: 19 MFI
- fluorescence intensity [10, 14]: 30.8 MFI
- fluorescence intensity [11, 15]: 17 MFI
- fluorescence intensity [11, 16]: 16.5 MFI
- fluorescence intensity [11, 17]: 15.5 MFI
- fluorescence intensity [11, 18]: 17 MFI
- fluorescence intensity [11, 19]: 15.2 MFI
- fluorescence intensity [11, 20]: 16.5 MFI
- fluorescence intensity [11, 13]: 16.5 MFI
- fluorescence intensity [11, 14]: 27 MFI
- fluorescence intensity [12, 15]: 15.5 MFI
- fluorescence intensity [12, 16]: 15.5 MFI
- fluorescence intensity [12, 17]: 16 MFI
- fluorescence intensity [12, 18]: 15.8 MFI
- fluorescence intensity [12, 19]: 16 MFI
- fluorescence intensity [12, 20]: 17.5 MFI
- fluorescence intensity [12, 13]: 20 MFI
- fluorescence intensity [12, 14]: 45 MFI
